Laboratory results: PubChem BioAssay AID1259308 (NCATS, 2017)
Assay: 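Genes whose loss raises luciferase production in HEK293 cells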 (primary screen). System: human HEK293 embryonic kidney cells stably expressing firefly luciferase (HEK-CMV-Luc2-Hygro). Reagent: single siRNA against human genes, 0.8 pmol siRNA per well. Time to read-out: 72 h. Detection: 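Reporter luminescence and viable-cell signal on separate replicate plates, given as percent of non-targeting control and median/MAD z-scores, plus per-cell luciferase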. Reading the numbers: total luciferase, z-score and total luciferase, % of control: higher = more reporter protein produced. Hit rule: 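An siRNA counts as active if its total luciferase robust z-score exceeds 3; genes with two or more such siRNAs out of three were retested with fresh siRNAs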. Meaning of the calls: active = raised luciferase; inactive = no rise.
Here is a random part of about 59,000 reagents tested. In the full data, about 1,510 (2.6%) were called active. 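Calls use total luciferase alone and ignore viability, so some active siRNAs may act by altering cell number.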 Unmarked entries are inactive. Further read-outs or replicates are left out here.

How did the screen score DTD1 [SID160754331]?
total luciferase, z-score: -0.102; total luciferase, % of control: 79.9

For DTD1 [SID160754333], how do the results read?
total luciferase, z-score: -1.79; total luciferase, % of control: 46.2

What is on record for DTD1 [SID160754334]?
total luciferase, z-score: -1.73; total luciferase, % of control: 47.4

With ZFAND2B [SID160756988], what does the deposit list?
total luciferase, z-score: -2; total luciferase, % of control: 42.1

For ZFAND2B [SID160756989], how do the results read?
total luciferase, z-score: 3.18 (active); total luciferase, % of control: 145

Which result is listed for ZFAND2B [SID160756990]?
total luciferase, z-score: 0.825; total luciferase, % of control: 98.3

What did the screen give for TCF15 [SID160717816]?
total luciferase, z-score: -0.192; total luciferase, % of control: 78.1

What did the screen give for TCF15 [SID160717817]?
total luciferase, z-score: -0.509; total luciferase, % of control: 71.8

For TCF15 [SID160717818], how do the results read?
total luciferase, z-score: 0.277; total luciferase, % of control: 87.4

What is on record for SLC35E2B [SID160772009]?
total luciferase, z-score: -0.742; total luciferase, % of control: 67.1

What is on record for SLC35E2B [SID160772010]?
total luciferase, z-score: -0.191; total luciferase, % of control: 78.1

What is on record for SLC35E2B [SID160772011]?
total luciferase, z-score: 0.411; total luciferase, % of control: 90.1

For EID3 [SID160768252], how do the results read?
total luciferase, z-score: -0.372; total luciferase, % of control: 74.5

With EID3 [SID160768253], how do the results read?
total luciferase, z-score: -0.512; total luciferase, % of control: 71.7

What did the screen give for EID3 [SID160768254]?
total luciferase, z-score: -0.289; total luciferase, % of control: 76.1

With DRD1 [SID160756253], what does the deposit list?
total luciferase, z-score: -0.269; total luciferase, % of control: 76.5

For DRD1 [SID160756264], how do the results read?
total luciferase, z-score: 0.27; total luciferase, % of control: 87.2

For DRD1 [SID160756275], what was measured?
total luciferase, z-score: 0; total luciferase, % of control: 81.9

With ASAP1 [SID160739706], what was measured?
total luciferase, z-score: 2.01; total luciferase, % of control: 122

What is on record for ASAP1 [SID160739709]?
total luciferase, z-score: -0.182; total luciferase, % of control: 78.3

What is on record for ASAP1 [SID160739710]?
total luciferase, z-score: 0.49; total luciferase, % of control: 91.6

With FAM117B [SID160732568], how do the results read?
total luciferase, z-score: 1.3; total luciferase, % of control: 108

With FAM117B [SID160759026], how do the results read?
total luciferase, z-score: -0.949; total luciferase, % of control: 63

How did the screen score FAM117B [SID160759027]?
total luciferase, z-score: -0.497; total luciferase, % of control: 72

For THNSL2 [SID160743369], how do the results read?
total luciferase, z-score: 0.00781; total luciferase, % of control: 82

With THNSL2 [SID160743370], how do the results read?
total luciferase, z-score: 0.881; total luciferase, % of control: 99.4

With THNSL2 [SID160743371], what does the deposit list?
total luciferase, z-score: 1.36; total luciferase, % of control: 109

How did the screen score SHMT2 [SID160716700]?
total luciferase, z-score: 2.73; total luciferase, % of control: 136

With SHMT2 [SID160716701], how do the results read?
total luciferase, z-score: 0.349; total luciferase, % of control: 88.8

With SHMT2 [SID160716702], what was measured?
total luciferase, z-score: -0.843; total luciferase, % of control: 65.1

How did the screen score HAUS3 [SID160748865]?
total luciferase, z-score: 1.26; total luciferase, % of control: 107

Which result is listed for HAUS3 [SID160748866]?
total luciferase, z-score: -1.8; total luciferase, % of control: 46

Which result is listed for HAUS3 [SID160748868]?
total luciferase, z-score: 0.437; total luciferase, % of control: 90.6
